From patent publication US20110092445A1 (Abbott Laboratories, priority 2008, published 2011)

Test: general procedure: Fmoc solid-phase peptide synthesis; Fmoc-Ala-PEG polystyrene resin, Fmoc-Ala-Wang resin, Rink amide MBHA resin; HATU/DIEA (Pioneer); HBTU/HOBt/DIEA (433)
Details: whole synthesis, scale 100 umol

MDAEFRHDSGYEVHHQKCVFFAEDVGSNKGAIIGCMVGGVVIA
crude mass: 0.319 g | crude yield: 62.6% | isolated mass: 0.0274 g | isolated yield: 8.5%

Plain letter strings leave the end groups untold.
